From paper PMC10593810

Assays:
[1] = target: T1, FLAG-Mettl14 (Drosophila) (UniProt Q9VLP7); test: co-IP; HEK293T co-transfected with a FLAG-tagged and a Myc-tagged plasmid, 48 h; lysis buffer 50 mM Tris-HCl pH 7.5, 150 mM NaCl, 0.5% Triton X-100, 1 mM PMSF; precipitated on anti-FLAG M2 gel at 4 °C; western blotting
T1 sequence: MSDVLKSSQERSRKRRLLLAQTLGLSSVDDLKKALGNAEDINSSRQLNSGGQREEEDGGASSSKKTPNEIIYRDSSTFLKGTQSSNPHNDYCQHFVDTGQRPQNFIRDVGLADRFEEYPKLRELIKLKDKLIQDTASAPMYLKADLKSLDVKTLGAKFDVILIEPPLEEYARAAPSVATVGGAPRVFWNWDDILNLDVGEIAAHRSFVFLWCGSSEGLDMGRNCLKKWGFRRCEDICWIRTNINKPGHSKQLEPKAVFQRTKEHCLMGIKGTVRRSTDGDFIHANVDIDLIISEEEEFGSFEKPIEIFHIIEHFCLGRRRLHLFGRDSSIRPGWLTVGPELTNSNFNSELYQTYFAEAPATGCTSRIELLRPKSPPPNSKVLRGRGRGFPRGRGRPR

[2] = target: T2, FLAG-YT521-B (Drosophila) (UniProt Q9VZQ1); test: as above
T2 sequence: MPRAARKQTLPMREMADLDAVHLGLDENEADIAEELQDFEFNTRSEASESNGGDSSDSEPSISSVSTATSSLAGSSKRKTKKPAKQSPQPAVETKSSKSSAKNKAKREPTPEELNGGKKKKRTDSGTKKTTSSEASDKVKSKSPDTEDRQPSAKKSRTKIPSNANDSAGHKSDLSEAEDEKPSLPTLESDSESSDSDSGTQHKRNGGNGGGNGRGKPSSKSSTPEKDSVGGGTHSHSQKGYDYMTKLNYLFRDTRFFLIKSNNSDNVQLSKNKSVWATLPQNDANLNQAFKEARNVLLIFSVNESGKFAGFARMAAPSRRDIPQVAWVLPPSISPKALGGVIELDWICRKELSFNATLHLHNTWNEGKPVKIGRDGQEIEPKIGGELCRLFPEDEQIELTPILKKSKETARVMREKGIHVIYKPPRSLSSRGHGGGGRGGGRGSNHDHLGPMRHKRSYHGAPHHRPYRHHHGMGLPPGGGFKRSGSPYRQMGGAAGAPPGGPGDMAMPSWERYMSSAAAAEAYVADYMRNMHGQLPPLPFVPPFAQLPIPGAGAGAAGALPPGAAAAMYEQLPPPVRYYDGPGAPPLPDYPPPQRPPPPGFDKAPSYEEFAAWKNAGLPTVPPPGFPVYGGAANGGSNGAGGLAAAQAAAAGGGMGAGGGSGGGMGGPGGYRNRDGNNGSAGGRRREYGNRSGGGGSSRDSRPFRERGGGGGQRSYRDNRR

[3] = target: FLAG-BuGZ (FLAG-tagged BuGZ protein-trap reporter line, midgut) (Drosophila); test: co-IP; BuGZ-FLAG fly midguts (young and aged), lysed in 1% PBST; FLAG-BuGZ precipitated on anti-FLAG M2 gel at 4 °C; western blotting for endogenous Ime4 or Mettl14; same level of precipitated FLAG-BuGZ loaded

Molecule: Myc-BuGZ^FL (Drosophila)
- binding [1]: binds
- binding [2]: no binding

B1: endogenous Mettl14 (Drosophila midgut) (protein, UniProt Q9VLP7 1-397)
chain: T1 sequence
- binding [3]: binds

No constants are given. Whether binding was seen depends on the method and setting. In cells and extracts the contact can be indirect. For part of these data: A result given as binding can be weak or reduced; the word gives no strength. For part of these data: Tags and fused reporters may be left off the sequences shown.
